Target: T1, Fc protein of human IgG1 antibody (human, UniProt P01857-1 100-330 = IgG part, limits assumed)
T1 construct: domain: Fc; Immobilised on a CM5 chip by amine coupling at about 1400 RU; also called Fc region of an IgG1 antibody
Assay: SPR Biacore T200, 25 C, Fc of human IgG1 amine-coupled on CM5, peptide as analyte, single cycle kinetics

B1: QET-ProAR-PA48-Z34CK (peptide)
chain: QETFNREQQNAFYEILHLPNLNEEQRNGFIQSLRDDPSQSANLLAEAGGAAPAAPAPAAPAAPAPAAPAAPAPAAPAAPAPAAPAAPAPAAPAAPAPGGFNKQCQRRFYEALHDPNLNEEQRNARIRSIREEC
modifications: C-terminal -NH2 as printed in the 1st table; N-terminal Gln designed to be pyroglutamylated
- Kd: 1.08 nM

Source: patent publication US20250101129A1 (AJINOMOTO, published 2025)
